# Test results published in patent US20020151680A1.
# The chains behind the UniProt entries cited, without tags or fusion partners. Residues count along the entry.
# UniProt P35916, residues 25-329: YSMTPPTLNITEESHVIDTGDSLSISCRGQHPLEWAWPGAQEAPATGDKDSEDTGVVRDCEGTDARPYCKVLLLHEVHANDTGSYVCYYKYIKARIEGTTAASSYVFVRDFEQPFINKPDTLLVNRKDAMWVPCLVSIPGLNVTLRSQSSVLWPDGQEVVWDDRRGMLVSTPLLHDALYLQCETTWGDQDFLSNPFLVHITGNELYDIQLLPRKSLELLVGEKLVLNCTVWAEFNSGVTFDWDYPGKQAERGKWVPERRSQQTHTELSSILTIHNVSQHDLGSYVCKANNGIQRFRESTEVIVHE
# UniProt P17948, residues 27-331: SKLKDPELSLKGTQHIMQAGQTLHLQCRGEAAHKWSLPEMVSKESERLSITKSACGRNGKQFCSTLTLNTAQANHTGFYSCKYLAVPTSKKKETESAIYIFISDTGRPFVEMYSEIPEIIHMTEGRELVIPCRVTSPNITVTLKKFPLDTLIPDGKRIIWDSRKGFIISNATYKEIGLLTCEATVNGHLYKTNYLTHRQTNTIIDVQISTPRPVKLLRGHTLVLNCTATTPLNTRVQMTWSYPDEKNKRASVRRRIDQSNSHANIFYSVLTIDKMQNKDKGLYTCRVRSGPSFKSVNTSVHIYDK
# UniProt P35968, residues 24-326: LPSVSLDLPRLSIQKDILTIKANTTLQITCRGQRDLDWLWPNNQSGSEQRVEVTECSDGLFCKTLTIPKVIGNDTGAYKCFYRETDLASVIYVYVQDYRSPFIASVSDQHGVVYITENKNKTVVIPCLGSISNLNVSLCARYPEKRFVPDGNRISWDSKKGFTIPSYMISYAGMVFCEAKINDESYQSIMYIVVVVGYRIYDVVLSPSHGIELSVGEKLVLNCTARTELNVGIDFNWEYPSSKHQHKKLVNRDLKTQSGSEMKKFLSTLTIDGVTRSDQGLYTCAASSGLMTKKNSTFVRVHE
# Positions count from the first letter of the chain named. These are yes or no findings as the source states them, for the method shown. Some binding calls cover weakened binding; strength is not graded here.
# B1: 22-3 (ligand)
# chain: AHYNTEILKSIDNEWRKTQCMPREVCIDVGKEFGVATNTFFKPPCVSVYRCGGCCNSEGLQCVPTEESNITMQIMRIKPHQGQHIGEMSFLQHNKCECRPKKD
# B2: 22-10 (ligand)
# chain: AHYNTEILKSIDNEWRKTQCMPREVCIDVGKEFGVATNTFFKPPCVSVYRCGGCCNDEGLECMNTSTSYLSKTLFEITVPLSQGPKPVTISFLQHNKCECRPKKD
# B3: 22-12 (ligand)
# chain: B2 chain with D57S, E61Q
# B4: 63-7 (ligand)
# chain: GQNHHEVVKFMDVYQRSYCHPREVCIDVGKEYPDEIEYIFKPPCVSVYRCGGCCNSEGLQCVPTEESNITMQIMRIKPHQGQHIGEMSFANHTSCRCMSKLD
# B5: 82-14 (ligand)
# chain: AHYNTEILKFMDVYQRSYCHPIETLVDIFQEFGVATNTFFKPPCVSVYRCGGCCNDEGLECMNTSTSYLSKTLFEITVPLSQGPKPVTISFANHTSCRCMSKLD
# B6: 82-16 (ligand)
# chain: B5 chain with D56S, E60Q
# B7: 12-16 (ligand)
# chain: GQNHHEVVKFMDVYQRSYCHPIETLVDIFQEFGVATNTFFKPPCVSVYRCGLLQ
# B8: 72-6 (ligand)
# chain: GQNHHEVVKSIDNEWRKTQCMPREVCIDVGKEFGVATNTFFKPPCVSVYRCGGCCNDEGLECMNTSTSYLSKTLFEIKPHQGQHIGEMSFANHTSCRCMSKLD
# B9: 62-11 (ligand)
# chain: GQNHHEVVKFMDVYQRSYCHPREVCIDVGKEFGVATNTFFKPPCVSVYRCGGCCNSEGLQCVPTEESNITMQIMRITVPLSQGPKPVTISFLQHNKCECRPKKD
# B10: 32-11 (ligand)
# chain: GQNHHEVVKSIDNEWRKTQCMPIETLVDIFQEFGVATNTFFKPPCVSVYRCGGCCNSEGLQCVPTEESNITMQIMRITVPLSQGPKPVTISFLQHNKCECRPKKD
# B11: 32-15 (ligand)
# chain: B10 chain with L93A, Q94N, N96T, K97S, E99R, R101M, P102S, K104L
# B12: 52-11 (ligand)
# chain: B10 chain with G1A, Q2H, N3Y, H4N, H5T, V7I, V8L
# B13: 52-9 (ligand)
# chain: B10 chain with G1A, Q2H, N3Y, H4N, H5T, V7I, V8L, S57D, Q61E
# B14: 22-2 (ligand)
# chain: AHYNTEILKSIDNEWRKTQCMPREVCIDVGKEFGVATNTFFKPPCVSVYRCGGCCNDEGLECMNTSTSYLSKTLFEIKPHQGQHIGEMSFLQHNKCECRPKKD
# B15: 81-15 (ligand)
# chain: AHYNTEILKFMDVYQRSYCHPIETLVDIFQEYPDEIEYIFKPSCVPLMRCGGCCNSEGLQCVPTEESNITMQIMRITVPLSQGPKPVTISFANHTSCRCMSKLD
# B16: 83-11 (ligand)
# chain: AHYNTEILKFMDVYQRSYCHPIETLVDIFQEYPDEIEYIFKPPCVSVYRCGGCCNSEGLQCVPTEESNITMQIMRITVPLSQGPKPVTISFLQHNKCECRPKKD
# B17: 81-11 (ligand)
# chain: B16 chain with P43S, S46P, V47L, Y48M
# B18: 11-5 (ligand)
# chain: GQNHHEVVKFMDVYQRSYCHPIETLVDIFQEYPDEIEYIFKPSCVPLMRCGGCCNDEGLECVPTEESNITMQIMRIKPHQGQHIGEMSFANHTSCRCMSKLD
# B19: 11-7 (ligand)
# chain: B18 chain with D56S, E60Q
# B20: 63-1 (ligand)
# chain: B4 chain with S56D, Q60E, A90L, N91Q, T93N, S94K, R96E, M98R, S99P, L101K
# B21: 83-7 (ligand)
# chain: AHYNTEILKFMDVYQRSYCHPIETLVDIFQEYPDEIEYIFKPPCVSVYRCGGCCNSEGLQCVPTEESNITMQIMRIKPHQGQHIGEMSFANHTSCRCMSKLD
# B22: 13-5 (ligand)
# chain: B18 chain with S43P, P46S, L47V, M48Y
# B23: 13-7 (ligand)
# chain: B18 chain with S43P, P46S, L47V, M48Y, D56S, E60Q
# B24: 81-7 (ligand)
# chain: B21 chain with P43S, S46P, V47L, Y48M
# B25: 81-5 (ligand)
# chain: B21 chain with P43S, S46P, V47L, Y48M, S56D, Q60E
# B26: 11-11 (ligand)
# chain: GQNHHEVVKFMDVYQRSYCHPIETLVDIFQEYPDEIEYIFKPSCVPLMRCGGCCNSEGLQCVPTEESNITMQIMRITVPLSQGPKPVTISFLQHNKCECRPKKD
# B27: 11-15 (ligand)
# chain: B15 chain with A1G, H2Q, Y3N, N4H, T5H, I7V, L8V
# B28: 84-3 (ligand)
# chain: AHYNTEILKFMDVYQRSYCHPIETLVDIFQEFGVATNTFFKPSCVPLMRCGGCCNSEGLQCVPTEESNITMQIMRIKPHQGQHIGEMSFLQHNKCECRPKKD
# Target: VEGFR-3-Fc (UniProt P35916)
# Assay: 35S IP, receptor-Fc
row,binding,Binder
1,binds,B1
2,binds,B2
3,binds,B3
4,binds,B4
5,binds,B5
6,binds,B6
7,binds,B7
8,binds,B8
9,binds,B9
10,binds,B10
11,binds,B11
12,binds,B12
13,binds,B13
14,binds,B14

# Target: VEGFR-1-Fc (UniProt P17948)
# Assay: 35S IP, receptor-Fc
row,binding,Binder
1,binds,B15
2,binds,B16
3,binds,B17
4,binds,B18
5,binds,B19
6,binds,B20
7,binds,B21
8,binds,B22
9,binds,B23
10,binds,B24
11,binds,B25
12,binds,B26
13,binds,B27
14,binds,B28

# Target: VEGFR-2-Fc (UniProt P35968)
# Assay: 35S IP, receptor-Fc
row,binding,Binder
1,binds,B15
2,binds,B16
3,binds,B17
4,binds,B18
5,binds,B19
6,binds,B2
7,binds,B3
8,binds,B20
9,binds,B4
10,binds,B21
11,binds,B22
12,binds,B23
13,binds,B24
14,binds,B25
15,binds,B9
16,binds,B26
17,binds,B27
18,binds,B28
19,binds,B14
